# Data as given in patent US20040072206A1, “Method for identifying modulators of transcription” (priority 2000, published 2004).
# By UniProt entry, the sequences of proteins in these tests, tags left out. Where a name states a change or a piece, a line headed by the entry shows the natural chain unless it says otherwise.
# UniProt P00573: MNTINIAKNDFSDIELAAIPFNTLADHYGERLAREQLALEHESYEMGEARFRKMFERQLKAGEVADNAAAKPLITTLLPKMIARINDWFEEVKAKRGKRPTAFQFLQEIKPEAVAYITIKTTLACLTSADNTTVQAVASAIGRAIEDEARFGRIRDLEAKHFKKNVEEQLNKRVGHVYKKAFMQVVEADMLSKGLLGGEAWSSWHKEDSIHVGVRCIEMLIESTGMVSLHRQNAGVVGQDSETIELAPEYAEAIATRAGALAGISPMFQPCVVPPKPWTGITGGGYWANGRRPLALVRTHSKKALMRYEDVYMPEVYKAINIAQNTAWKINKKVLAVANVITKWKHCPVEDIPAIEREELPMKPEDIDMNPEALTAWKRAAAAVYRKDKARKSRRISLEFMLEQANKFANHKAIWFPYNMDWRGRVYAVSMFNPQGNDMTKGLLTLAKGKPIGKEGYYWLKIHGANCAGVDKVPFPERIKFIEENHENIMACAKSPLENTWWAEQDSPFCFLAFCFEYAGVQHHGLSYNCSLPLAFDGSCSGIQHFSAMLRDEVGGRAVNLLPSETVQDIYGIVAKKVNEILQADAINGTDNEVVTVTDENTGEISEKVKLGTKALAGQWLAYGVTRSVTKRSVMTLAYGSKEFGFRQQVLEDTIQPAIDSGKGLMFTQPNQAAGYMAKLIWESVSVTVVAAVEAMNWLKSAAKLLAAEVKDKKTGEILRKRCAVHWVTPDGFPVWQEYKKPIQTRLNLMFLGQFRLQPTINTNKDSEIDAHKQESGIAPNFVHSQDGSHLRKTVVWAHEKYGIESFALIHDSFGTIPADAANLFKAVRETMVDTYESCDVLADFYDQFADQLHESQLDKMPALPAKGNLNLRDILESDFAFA
# UniProt P37870, whole entry: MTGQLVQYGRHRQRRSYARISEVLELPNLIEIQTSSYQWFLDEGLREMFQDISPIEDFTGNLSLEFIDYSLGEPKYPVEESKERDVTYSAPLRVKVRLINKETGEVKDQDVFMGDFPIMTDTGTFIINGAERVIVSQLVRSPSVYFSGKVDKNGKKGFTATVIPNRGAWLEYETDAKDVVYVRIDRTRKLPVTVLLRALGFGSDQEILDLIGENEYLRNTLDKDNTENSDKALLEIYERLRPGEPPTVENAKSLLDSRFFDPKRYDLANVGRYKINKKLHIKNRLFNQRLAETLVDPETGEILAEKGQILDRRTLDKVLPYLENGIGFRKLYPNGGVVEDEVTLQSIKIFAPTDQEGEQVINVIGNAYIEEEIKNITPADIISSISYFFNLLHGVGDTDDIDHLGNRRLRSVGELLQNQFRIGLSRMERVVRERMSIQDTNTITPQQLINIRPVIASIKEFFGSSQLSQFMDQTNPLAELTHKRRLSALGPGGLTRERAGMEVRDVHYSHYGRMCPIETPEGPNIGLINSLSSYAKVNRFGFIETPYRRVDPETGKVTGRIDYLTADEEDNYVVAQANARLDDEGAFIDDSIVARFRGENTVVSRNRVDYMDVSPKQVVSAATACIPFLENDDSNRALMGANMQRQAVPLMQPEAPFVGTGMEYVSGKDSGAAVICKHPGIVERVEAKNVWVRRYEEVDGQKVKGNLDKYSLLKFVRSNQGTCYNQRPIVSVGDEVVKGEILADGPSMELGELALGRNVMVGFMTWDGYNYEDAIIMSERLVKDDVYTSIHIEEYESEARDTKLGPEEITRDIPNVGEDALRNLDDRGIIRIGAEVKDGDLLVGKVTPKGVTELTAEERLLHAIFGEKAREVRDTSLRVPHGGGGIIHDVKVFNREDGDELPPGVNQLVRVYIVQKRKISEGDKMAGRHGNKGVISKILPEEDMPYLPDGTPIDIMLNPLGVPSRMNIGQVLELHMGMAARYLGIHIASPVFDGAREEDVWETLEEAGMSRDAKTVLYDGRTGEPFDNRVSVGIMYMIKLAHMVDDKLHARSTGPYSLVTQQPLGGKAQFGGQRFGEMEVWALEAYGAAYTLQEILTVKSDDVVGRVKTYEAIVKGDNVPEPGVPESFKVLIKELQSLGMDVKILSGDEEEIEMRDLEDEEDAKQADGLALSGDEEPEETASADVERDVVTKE
# UniProt P37871, whole entry: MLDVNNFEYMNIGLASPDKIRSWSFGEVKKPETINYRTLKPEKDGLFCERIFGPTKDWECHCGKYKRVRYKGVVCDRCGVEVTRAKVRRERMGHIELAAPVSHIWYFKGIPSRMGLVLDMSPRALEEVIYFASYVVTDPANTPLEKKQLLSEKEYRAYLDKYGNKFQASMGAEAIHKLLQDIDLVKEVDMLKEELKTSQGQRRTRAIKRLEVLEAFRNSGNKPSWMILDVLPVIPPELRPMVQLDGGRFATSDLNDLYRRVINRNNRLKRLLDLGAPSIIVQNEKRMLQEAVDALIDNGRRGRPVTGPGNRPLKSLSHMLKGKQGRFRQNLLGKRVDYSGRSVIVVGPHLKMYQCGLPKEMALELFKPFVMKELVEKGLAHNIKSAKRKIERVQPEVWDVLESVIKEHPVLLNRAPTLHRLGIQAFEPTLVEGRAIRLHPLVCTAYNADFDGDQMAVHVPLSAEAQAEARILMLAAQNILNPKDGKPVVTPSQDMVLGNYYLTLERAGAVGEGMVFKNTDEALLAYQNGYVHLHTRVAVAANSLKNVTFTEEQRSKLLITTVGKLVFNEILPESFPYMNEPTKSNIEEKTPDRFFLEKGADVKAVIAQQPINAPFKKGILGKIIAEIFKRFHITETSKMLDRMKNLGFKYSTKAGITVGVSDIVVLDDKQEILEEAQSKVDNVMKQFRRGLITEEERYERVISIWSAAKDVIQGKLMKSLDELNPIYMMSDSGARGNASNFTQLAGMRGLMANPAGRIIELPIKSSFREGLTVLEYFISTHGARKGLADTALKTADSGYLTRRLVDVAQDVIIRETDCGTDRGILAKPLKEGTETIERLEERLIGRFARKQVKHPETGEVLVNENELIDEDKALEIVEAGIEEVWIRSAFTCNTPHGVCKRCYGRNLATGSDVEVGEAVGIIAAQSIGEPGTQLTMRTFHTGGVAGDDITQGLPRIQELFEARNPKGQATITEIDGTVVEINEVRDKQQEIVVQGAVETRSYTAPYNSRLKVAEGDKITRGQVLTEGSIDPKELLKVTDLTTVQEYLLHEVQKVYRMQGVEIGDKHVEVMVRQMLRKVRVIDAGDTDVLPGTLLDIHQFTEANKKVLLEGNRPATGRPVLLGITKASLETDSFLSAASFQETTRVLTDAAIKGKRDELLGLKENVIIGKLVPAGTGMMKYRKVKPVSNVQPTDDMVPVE
# For at least one compound, name, drawing or mass did not settle the structure.
# How the values were obtained:
# T7 RNAP = molecular target: T1, T7 RNAP (Escherichia phage T7, UniProt P00573); test: Dual reporter assay in strain PL37: control reporter PT7X-gus; assay type: cell-based, bacteriophage T7; settings: strain PL37, FIG. 5
# T1 construct: expressed in transfected cells; host or cells: Bacillus subtilis PL37, with Pspac-rpoT7 integrated in the chromosome and induced by IPTG
# Procedure: 20 known antibiotics were tested at a range of concentrations to determine their effect on test and control reporters within the assay. […] Cultures of PL37 grown in PAB, were diluted to 0.05 A600 and then grown for 2 hours at 37° C. in PAB supplemented with 0.02 mM IPTG. Cells were pelleted and frozen. They were later resuspended and diluted in PAB supplemented with 0.02 mM IPTG and grown at 37° C. to early exponential phase. Cultures were then diluted to 0.05 A600 in PAB and added in 20 μl volumes to wells of microtitre plates containing 20 μl volumes of the antibiotics. Plates were incubated at 37° C. for two hours, and assay mix was added to detect reporter enzyme activity (see below).
# Following the addition of 160 μl of assay mix (1.3×Z buffer containing 94 μg/ml lysozyme, 8.4 μg/ml 4-methylumbelliferyl-β-D-galactoside, 0.53 μg/ml resorufin-β-D-glucuronide and 0.05% Triton) to each well, the microtitre plate was incubated in the dark for 30 mini or 1 hour at room temperature. Fluorescence was read on a BMG FLUOstar Galaxy at excitation/emission 355/460 nm and 544/590 nm, respectively, with gains set at 5 and 25, respectively.
# bacterial RNA polymerase = molecular target: T2, bacterial RNA polymerase (Bacillus subtilis, UniProt P37870+P37871); test: Dual reporter assay in strain X (xylose-induced lacZ and T7 RNAP-driven gus reporters); assay type: cell-based; settings: 30 min incubation
# T2 construct: endogenous in cells; host or cells: Bacillus subtilis strain X (derivative of strain 168)
# From the text: The strain X is a derivative of the standard laboratory strain of Bacillus subtilis 168. It has been modified in three ways.
# 1. It carries a xylose-inducible promoter driving transcription of the well known reporter gene lacZ, encoding the enzyme β-galactosidase. The reporter gene is silent or expressed at low levels in the absence of xylose because the endogenous XylR protein binds to the promoter region, reducing the ability of RNAP to initiate transcription. On addition of xylose or similar sugar, the repressor leaves the promoter allowing RNAP to transcribe the gene strongly, resulting in increased synthesis of β-galactosidase. A simple colourigenic substrate, ONPG was used to detect the formation of the enzyme.
# 2. Strain X also carries a second reporter gene comprising a promoter recognised by the RNAP of bacteriophage T7. This promoter has been modified so as to be recognised and repressed by the same XylR repressor as controls the first reporter. Consequently, the promoter cannot be utilised by T7 RNAP unless xylose is present. […]
# The assay was done by growing a culture of strain X in the absence of xylose and then dispensing aliquots of culture into the wells of a microtitre plate. […] The plate was incubated for 30 min to allow accumulation of the two reporter enzymes, then the cells were lysed and the two enzyme activities were measured.
smiles,measurement,setting,value
CO[C@H]1/C=C/O[C@@]2(C)Oc3c(C)c(O)c4c(O)c(c(/C=N/N5CCN(C)CC5)c(O)c4c3C2=O)NC(=O)/C(C)=C\C=C\[C@H](C)[C@H](O)[C@@H](C)[C@@H](O)[C@@H](C)[C@H](OC(C)=O)[C@@H]1C [Rifampicin],Expression of the T7 RNAP-dependent control reporter,T7 RNAP,increased
same,Reporter enzyme activities (β-galactosidase and β-glucuronidase),bacterial RNA polymerase,only the reporter enzyme driven by the T7 RNAP (β-glucuronidase) was active
